Experiment [1] concerns the target T1, NAT10 (endogenous, mouse testis) (mouse (endogenous in testis)) (UniProt Q8K224).
T1 sequence: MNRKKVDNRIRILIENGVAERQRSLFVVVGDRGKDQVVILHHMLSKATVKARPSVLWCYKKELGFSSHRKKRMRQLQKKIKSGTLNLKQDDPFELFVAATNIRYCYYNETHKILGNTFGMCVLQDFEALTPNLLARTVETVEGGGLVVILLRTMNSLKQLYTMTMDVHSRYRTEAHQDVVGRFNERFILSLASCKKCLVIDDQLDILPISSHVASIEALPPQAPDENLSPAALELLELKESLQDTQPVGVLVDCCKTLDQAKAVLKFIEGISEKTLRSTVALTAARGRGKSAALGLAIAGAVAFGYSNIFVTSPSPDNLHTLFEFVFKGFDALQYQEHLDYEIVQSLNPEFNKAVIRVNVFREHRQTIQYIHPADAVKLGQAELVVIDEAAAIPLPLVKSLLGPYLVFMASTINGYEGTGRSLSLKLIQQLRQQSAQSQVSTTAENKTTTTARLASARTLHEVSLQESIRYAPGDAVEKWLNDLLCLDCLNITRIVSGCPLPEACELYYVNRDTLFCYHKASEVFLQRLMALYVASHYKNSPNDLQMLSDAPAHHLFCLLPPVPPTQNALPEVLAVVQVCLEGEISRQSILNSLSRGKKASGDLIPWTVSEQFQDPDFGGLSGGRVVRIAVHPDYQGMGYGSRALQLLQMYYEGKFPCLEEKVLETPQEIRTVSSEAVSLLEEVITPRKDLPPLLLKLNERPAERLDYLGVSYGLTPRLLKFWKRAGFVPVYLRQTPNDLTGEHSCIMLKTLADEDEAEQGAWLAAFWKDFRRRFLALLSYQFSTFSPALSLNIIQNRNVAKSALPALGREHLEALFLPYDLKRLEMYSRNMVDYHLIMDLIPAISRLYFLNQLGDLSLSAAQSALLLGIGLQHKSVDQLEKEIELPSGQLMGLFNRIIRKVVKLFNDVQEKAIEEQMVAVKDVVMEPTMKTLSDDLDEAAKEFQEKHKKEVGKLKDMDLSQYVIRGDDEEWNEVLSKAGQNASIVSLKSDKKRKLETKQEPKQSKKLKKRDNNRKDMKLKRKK
Briefly: affinity purification with mass spectrometry; endogenous NAT10 from wild-type mouse testis lysate, purified with anti-NAT10 antibody-conjugated beads; IgG as negative control; mass spectrometry.

Amino acid sequences for entries named in this document (tags omitted).
UniProt Q61990: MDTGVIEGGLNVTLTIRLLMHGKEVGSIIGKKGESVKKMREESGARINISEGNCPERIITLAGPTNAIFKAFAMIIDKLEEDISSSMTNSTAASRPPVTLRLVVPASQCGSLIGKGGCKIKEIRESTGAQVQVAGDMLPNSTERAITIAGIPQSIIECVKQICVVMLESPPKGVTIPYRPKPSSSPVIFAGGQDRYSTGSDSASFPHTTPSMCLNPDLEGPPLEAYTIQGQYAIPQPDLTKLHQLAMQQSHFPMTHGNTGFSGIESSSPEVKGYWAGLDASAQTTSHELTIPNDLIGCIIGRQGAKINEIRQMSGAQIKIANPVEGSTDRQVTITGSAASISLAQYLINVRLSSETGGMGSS
UniProt Q13148: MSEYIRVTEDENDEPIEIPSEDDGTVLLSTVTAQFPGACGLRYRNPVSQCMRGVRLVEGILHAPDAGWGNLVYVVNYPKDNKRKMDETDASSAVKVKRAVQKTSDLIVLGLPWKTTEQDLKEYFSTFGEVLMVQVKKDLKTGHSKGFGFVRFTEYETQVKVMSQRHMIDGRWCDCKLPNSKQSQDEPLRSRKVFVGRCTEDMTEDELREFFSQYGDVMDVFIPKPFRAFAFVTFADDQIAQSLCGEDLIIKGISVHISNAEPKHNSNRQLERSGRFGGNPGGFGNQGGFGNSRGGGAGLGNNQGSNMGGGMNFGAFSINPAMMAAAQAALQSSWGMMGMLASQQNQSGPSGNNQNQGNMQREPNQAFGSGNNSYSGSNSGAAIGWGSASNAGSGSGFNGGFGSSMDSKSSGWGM
UniProt Q921F2: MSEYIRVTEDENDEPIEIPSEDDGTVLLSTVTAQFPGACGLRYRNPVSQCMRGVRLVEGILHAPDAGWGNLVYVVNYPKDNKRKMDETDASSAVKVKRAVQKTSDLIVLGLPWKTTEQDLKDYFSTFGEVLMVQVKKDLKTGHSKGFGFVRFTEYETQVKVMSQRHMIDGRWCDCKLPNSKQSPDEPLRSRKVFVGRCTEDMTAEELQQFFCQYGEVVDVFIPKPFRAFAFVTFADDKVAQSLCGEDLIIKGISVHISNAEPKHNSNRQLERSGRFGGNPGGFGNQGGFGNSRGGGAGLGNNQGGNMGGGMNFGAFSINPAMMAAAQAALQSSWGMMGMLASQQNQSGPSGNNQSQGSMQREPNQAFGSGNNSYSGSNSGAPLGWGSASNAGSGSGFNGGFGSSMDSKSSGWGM

The target in experiment [2] is T2, FLAG-tagged NAT10 (human) (UniProt Q9H0A0).
T2 sequence: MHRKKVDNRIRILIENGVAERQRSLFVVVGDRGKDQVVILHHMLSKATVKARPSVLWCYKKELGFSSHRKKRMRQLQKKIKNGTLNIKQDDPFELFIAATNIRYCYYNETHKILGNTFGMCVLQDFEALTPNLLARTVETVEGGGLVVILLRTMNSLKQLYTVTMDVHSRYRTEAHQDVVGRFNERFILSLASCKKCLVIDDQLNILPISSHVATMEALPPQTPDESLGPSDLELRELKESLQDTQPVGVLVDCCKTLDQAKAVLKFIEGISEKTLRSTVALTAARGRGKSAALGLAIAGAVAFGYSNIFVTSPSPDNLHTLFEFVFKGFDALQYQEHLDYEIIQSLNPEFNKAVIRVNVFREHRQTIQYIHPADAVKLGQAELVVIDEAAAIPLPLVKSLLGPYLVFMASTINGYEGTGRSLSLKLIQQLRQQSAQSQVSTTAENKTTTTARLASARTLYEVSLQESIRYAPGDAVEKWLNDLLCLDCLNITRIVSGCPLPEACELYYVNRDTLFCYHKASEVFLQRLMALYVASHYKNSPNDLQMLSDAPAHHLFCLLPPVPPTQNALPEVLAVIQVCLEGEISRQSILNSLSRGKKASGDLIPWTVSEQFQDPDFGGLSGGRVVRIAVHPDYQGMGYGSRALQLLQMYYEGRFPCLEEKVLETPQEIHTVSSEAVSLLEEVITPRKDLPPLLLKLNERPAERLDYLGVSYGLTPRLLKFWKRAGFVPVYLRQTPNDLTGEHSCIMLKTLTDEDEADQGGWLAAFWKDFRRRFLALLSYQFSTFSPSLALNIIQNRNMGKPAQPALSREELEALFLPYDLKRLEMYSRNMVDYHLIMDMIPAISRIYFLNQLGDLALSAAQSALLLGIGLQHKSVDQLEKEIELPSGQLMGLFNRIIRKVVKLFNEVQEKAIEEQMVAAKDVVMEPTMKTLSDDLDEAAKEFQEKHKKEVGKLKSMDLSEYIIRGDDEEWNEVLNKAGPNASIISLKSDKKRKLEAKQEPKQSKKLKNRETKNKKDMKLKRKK
Briefly: affinity purification with mass spectrometry; FLAG-NAT10 from HEK293T cells transfected for 24 h, enriched on anti-FLAG affinity gel; empty FLAG vector as negative control; SDS-PAGE and mass spectrometry.

No constants are given. Whether binding was seen depends on the method and setting. In cells and extracts the contact can be indirect. A yes stands for co-enrichment or nearness to the bait. Other partners may have been found. For some of these results: Tags and fused reporters may be left off the sequences shown.

“PCBP2 (endogenous, mouse testis) (from UniProt Q61990 1-362)”: the binding result in experiment [1] is “binds”. As for “TDP43 (endogenous, HEK293T) (from UniProt Q13148 1-414)”, the binding result in experiment [2] is recorded as “binds”. “TDP43 (endogenous, mouse testis) (from UniProt Q921F2 1-414)”: the binding entry in experiment [1] is “binds”.

B1: HnRNP M (endogenous, HEK293T) (protein, UniProt P52272 1-730)
chain: MAAGVEAAAEVAATEIKMEEESGAPGVPSGNGAPGPKGEGERPAQNEKRKEKNIKRGGNRFEPYANPTKRYRAFITNIPFDVKWQSLKDLVKEKVGEVTYVELLMDAEGKSRGCAVVEFKMEESMKKAAEVLNKHSLSGRPLKVKEDPDGEHARRAMQKVMATTGGMGMGPGGPGMITIPPSILNNPNIPNEIIHALQAGRLGSTVFVANLDYKVGWKKLKEVFSMAGVVVRADILEDKDGKSRGIGTVTFEQSIEAVQAISMFNGQLLFDRPMHVKMDERALPKGDFFPPERPQQLPHGLGGIGMGLGPGGQPIDANHLNKGIGMGNIGPAGMGMEGIGFGINKMGGMEGPFGGGMENMGRFGSGMNMGRINEILSNALKRGEIIAKQGGGGGGGSVPGIERMGPGIDRLGGAGMERMGAGLGHGMDRVGSEIERMGLVMDRMGSVERMGSGIERMGPLGLDHMASSIERMGQTMERIGSGVERMGAGMGFGLERMAAPIDRVGQTIERMGSGVERMGPAIERMGLSMERMVPAGMGAGLERMGPVMDRMATGLERMGANNLERMGLERMGANSLERMGLERMGANSLERMGPAMGPALGAGIERMGLAMGGGGGASFDRAIEMERGNFGGSFAGSFGGAGGHAPGVARKACQIFVRNLPFDFTWKMLKDKFNECGHVLYADIKMENGKSKGCGVVKFESPEVAERACRMMNGMKLSGREIDVRIDRNA
As to B1, the binding result in experiment [2] is “binds”.

The record behind these values is article PMC11653668.
